# In PubChem BioAssay AID336 (DTP/NCI, 2004):
# The list shows only some results of the screen, not a fair sample: it covers a few groups of compounds. Other doses and runs of a compound may be missing. T/C: endpoint of the treated group in % of that of the vehicle group. Some doses have a count of surviving animals in place of a T/C: the source holds a T/C of zero for them, seemingly a mark for toxic or unscored doses. Some survivor counts are full or nearly so, which does not show that the dose was tolerated: survival well below the control is almost never listed, so the zero probably covers shortened survival too. Counts of survivors are from the toxicity check (mostly the fifth day) where no day follows; animals may have died later. Schedules are NCI's codes, read here as Q, the interval in days (D) or hours (H), X, the number of doses. For survival time, this PubChem deposit counts one and a half times the control or more as active, and values a quarter to a half above the control carry no call in these data; other NCI protocols may use other cut-offs. Some entries hold several experiments; the results are listed from low to high. Some T/C values carry the count of animals alive at the toxicity check (mostly the fifth day); without a count or a note in brackets, all were alive then.
# Tested on: BDF1 mice, P388/VCR leukemia ip, median survival T/C
# Test: NCI In Vivo Anticancer Drug Screen. Data for tumor model P388 Leukemia resistant to Vincristine; NSC 67574 (intraperitoneal) in B6D2F1 (BDF1) mice
# Settings: T/C endpoint: median survival time, schedule: Q01DX010 (ip), vehicle: saline, higher T/C = longer survival
# Protocol: The antitumor activity of compounds was measured in mice bearing transplantable tumors. Survival or tumor size were measured and the results are expressed as the measurement made in the treated group (T) divided by the measurement made in the vehicle treated control group (C). The tumor model used in this assay is P388 Leukemia resistant to Vincristine; NSC 67574 (intraperitoneal) in B6D2F1 (BDF1) mice
compound,measurement,setting,value
NC1CCCCC1.O=P(O)(N(CCCl)CCCl)N1CC1,T/C,dose: 1.25 mg/kg/injection,121 [5 of 6 alive] and 125 % of control
same,T/C,dose: 2.5 mg/kg/injection,121 and 139 % of control
same,T/C,dose: 5.0 mg/kg/injection,157 and 171 % of control
same,T/C,dose: 10.0 mg/kg/injection,200 and 214 % of control
Cc1[nH]c(=O)[nH]c(=O)c1N(CCCl)CCCl,T/C,dose: 0.13 mg/kg/injection,110 % of control
same,T/C,dose: 0.25 mg/kg/injection,110 % of control
same,T/C,dose: 0.5 mg/kg/injection,133 and 164 % of control
same,T/C,dose: 1.0 mg/kg/injection,90 % of control
same,survivor count,dose: 1.0 mg/kg/injection,6 of 6
same,survivor count,dose: 2.0 mg/kg/injection,6 of 6
same,survivor count,dose: 4.0 mg/kg/injection,6 of 6
CN(N=O)C(=N)N[N+](=O)[O-],T/C,dose: 8.0 mg/kg/injection,119 and 146 % of control
same,T/C,dose: 16.0 mg/kg/injection,138 and 146 % of control
same,survivor count,dose: 32.0 mg/kg/injection,6 of 6
same,survivor count,dose: 64.0 mg/kg/injection,6 of 6
